Consider 20 sequences from patent US20130245102.

Chains of the proteins cited; added tags and fusions are not shown. Lines headed by an entry give the natural chain unless they say otherwise; changes in a name come on top.
UniProt Q9UPY3: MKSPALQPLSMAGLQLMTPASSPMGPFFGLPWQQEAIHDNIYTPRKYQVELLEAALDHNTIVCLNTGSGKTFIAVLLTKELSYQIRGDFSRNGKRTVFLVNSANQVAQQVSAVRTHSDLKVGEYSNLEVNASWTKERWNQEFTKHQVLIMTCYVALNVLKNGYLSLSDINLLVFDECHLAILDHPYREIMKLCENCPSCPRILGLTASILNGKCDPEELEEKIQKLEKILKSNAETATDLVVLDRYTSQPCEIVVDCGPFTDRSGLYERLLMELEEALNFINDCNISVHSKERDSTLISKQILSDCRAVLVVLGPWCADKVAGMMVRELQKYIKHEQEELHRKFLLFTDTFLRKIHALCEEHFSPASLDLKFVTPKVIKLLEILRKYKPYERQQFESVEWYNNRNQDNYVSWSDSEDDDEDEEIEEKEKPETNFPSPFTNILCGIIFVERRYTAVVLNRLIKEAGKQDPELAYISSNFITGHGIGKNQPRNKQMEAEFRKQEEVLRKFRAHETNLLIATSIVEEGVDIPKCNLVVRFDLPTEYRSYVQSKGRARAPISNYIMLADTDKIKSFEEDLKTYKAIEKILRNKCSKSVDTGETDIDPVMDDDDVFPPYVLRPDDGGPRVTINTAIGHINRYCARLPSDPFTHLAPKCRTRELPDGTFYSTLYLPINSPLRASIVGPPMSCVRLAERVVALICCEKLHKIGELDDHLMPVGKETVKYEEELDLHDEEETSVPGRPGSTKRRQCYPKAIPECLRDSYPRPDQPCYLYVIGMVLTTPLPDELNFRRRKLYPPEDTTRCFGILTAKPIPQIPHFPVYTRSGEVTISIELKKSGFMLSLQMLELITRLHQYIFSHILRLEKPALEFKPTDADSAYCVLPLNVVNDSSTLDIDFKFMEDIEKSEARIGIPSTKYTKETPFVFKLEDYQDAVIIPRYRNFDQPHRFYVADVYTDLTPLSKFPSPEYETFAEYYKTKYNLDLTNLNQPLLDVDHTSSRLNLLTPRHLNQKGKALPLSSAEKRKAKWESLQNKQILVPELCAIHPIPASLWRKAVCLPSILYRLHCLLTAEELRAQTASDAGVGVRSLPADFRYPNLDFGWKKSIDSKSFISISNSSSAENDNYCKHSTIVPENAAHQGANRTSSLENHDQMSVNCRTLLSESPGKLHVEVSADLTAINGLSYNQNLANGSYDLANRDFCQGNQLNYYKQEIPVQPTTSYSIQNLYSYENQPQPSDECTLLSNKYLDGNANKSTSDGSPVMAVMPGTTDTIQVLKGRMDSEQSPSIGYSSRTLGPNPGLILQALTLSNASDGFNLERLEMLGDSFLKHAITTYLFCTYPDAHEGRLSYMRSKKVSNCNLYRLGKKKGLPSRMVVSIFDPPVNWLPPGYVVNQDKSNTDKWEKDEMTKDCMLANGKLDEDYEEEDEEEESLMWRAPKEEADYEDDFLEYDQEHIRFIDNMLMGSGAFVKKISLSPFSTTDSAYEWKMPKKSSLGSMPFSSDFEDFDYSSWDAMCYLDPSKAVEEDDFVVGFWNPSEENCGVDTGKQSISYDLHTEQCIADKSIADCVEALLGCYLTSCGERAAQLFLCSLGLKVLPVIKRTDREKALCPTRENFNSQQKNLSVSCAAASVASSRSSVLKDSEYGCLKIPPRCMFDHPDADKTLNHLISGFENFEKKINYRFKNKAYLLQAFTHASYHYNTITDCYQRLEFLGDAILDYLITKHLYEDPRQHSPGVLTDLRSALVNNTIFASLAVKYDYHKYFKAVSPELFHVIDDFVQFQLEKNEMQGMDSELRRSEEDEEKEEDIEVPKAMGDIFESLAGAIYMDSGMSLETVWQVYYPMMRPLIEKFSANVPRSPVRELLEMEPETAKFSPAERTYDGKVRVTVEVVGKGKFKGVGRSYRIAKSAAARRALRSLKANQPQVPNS
UniProt P00573: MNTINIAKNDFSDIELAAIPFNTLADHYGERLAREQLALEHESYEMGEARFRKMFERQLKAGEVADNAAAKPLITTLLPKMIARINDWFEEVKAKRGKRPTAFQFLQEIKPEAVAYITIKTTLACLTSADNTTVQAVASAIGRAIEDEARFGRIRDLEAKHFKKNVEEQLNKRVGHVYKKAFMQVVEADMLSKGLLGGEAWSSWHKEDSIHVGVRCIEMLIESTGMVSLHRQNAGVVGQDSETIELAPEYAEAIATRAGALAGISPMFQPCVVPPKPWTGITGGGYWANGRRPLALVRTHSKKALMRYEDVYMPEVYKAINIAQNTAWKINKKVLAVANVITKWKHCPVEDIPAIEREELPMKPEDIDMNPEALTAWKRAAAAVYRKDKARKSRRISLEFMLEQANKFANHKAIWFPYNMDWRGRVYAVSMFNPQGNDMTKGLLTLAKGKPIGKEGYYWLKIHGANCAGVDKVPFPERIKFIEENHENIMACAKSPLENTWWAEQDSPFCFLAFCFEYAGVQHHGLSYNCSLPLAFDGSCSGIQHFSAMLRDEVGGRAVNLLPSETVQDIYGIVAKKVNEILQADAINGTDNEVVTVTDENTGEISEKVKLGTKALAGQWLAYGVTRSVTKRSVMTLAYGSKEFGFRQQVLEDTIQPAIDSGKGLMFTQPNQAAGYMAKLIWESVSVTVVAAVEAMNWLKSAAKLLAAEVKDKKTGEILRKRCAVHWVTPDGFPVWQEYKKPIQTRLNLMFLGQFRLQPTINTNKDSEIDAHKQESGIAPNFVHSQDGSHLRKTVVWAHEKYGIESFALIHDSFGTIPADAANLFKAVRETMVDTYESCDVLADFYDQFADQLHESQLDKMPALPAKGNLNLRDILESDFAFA

For some assays here: Construct, isoform or probe ends are uncertain for at least one entry. For some assays here: Negatives hold for the conditions tested. For some assays here: A weaker result is weaker than the reference pair of the same experiment.

For data set [1], the system named is RNA polymerase III (Homo sapiens). Description: activity assay. Conditions: protein in an extract.
A further data set has as its target Dicer (Homo sapiens) (UniProt Q9UPY3). Description: enzyme reaction in vitro. As to conditions: 21-24 nt products increased in Dicer-overexpressing WCE; protein in a lysate after overexpression.
Data set [2] has as its target T7 RNA polymerase (Bacteriophage T7) (UniProt P00573). The experiment in a line: activity assay. As to conditions: rolling circle transcription; purified recombinant protein; protein details: New England Biolabs; folded or branched DNA.
The mark [3] stands for this setting: no detectable single round transcript, folded or branched DNA.
The mark [4] stands for this setting: monomer and oligomeric transcripts in WCE, folded or branched DNA.
The mark [5] stands for this setting: monomer transcript in WCE, folded or branched DNA.
Setting [6] is: single round transcript, folded or branched DNA.

As for “AACCTCCAAACAAGCTCTCAAGGTCCA [coligo 7SK-KO]”, the “activity on this sequence” value in data set [1] (setting [3]) is listed as “not active”.
“AACTGACCAGAGATGCAGCACTGCACCTCTTCCTGAGCTACAGTGCTTCATCTCAGAC [coligo 143]”: the “activity on this sequence” value in data set [1] (setting [4]) is on record as “active”.
Take “AATCCACAAACCATTATGTGCTGCTACTTTGCAGCACAATATGGCCTGCACAA [coligo 15a]”: the “activity on this sequence” value in data set [1] (setting [5]) is given as “active”.
For “ACCATCAGTTTTGCATAGATTTGCACAACTACAAAAATCAGAAGGAAAAAGTAGTGCAACTATGCAAAACTGACAG [lin19a]”, in data set [1] (linear, not transcribed or only low abortive transcripts, single-stranded DNA), the “activity on this sequence” value is recorded as “not active”.
“ACGAACACAGAAATCTACATTGTATGCCAGGTTCATGAAACCCAGCAGACAATGTAGCTGTTGCCTA [coligo 221]”: the “activity on this sequence” value in data set [1] (setting [5]) is listed as “active”.
Take “ATGATCTAAAAACGGTGCTGTGTATGTCTGCTTTGATCAACCTCTAATAGCTCGTATGATAGTGCAGCCGCTGGTGATCACTGTGCGAATACGGGTTGTAGCAATGTTCGTCTGAGT [coligo RANDC1]”: the “activity on this sequence” value in data set [1] (no transcripts in WCE, folded or branched DNA) was “not active”.
In the case of “AUCAAACGCCAUUAUCACACUAAAUAGCUACUGCUAGGCAAUUCCUUAGCAGAGCUGUGGAGUGUGACAAUGGUGUUUGUGUC [122 single round transcript]”, the functional effect entry with Dicer (Homo sapiens) is on record as “active”.
As to “CAGACAGCCCATCGACTGGTGTTGACAGTCAACATCAGTCTGATAAGCTACCCGACA [coligo 21]”, the “activity on this sequence” value in data set [1] (setting [4]) is “active”.
For “GAAGGAAAAATCAGTTTTGCATAGATTTGCACAACTACATTCTTCTTGTAGTGCAACTATGCAAAACTGCAAACAAAAACTA [coligo 19aDcr3]”, in data set [1] (setting [6]), the “activity on this sequence” value is given as “active”.
On to “GAAGGAAATAGCAGGCCACCATCAGTTTTGCATAGATTTGCACAACTTCCAGATTCCACCTACTGTGGCTGGAAATGCAACTATGCAAAACTAACAGAGGACTGCAAACAAAAACTA [coligo 19am3]”, for which, in data set [1] (setting [6]), the “activity on this sequence” value is recorded as “active”.
Regarding “GAAGGAAATAGCAGGCCACCATCAGTTTTGCATAGATTTGCACAACTTCCCTATGACCTCGACTACGACTGGAAATGCAACTATGCAAAACTAACAGAGGACTGCAAACAAAAACTA [coligo 19aRL]”, the “activity on this sequence” value in data set [1] (stable in WCE but not transcribed, folded or branched DNA, variant of coligo 19aTAR (19am)) is “not active”.
For the sequence “GGAAAAATCAGTTTTGCATAGATTTGCACAACTACACACATGTTGTAGTGCAACTATGCAAGACCAAAAATCAGAA [coligo 19adcr1]”, the “activity on this sequence” value in data set [1] (setting [6]) is recorded as “active”.
Regarding “GGGTACCCTCTCTCAGTAGGCAGCTGCAAACATCCGACTGAAAGCCCATCTGTGGCTTCACAGCTTCCAGTCGAGGATGTTTACAGTCGCTCACTGCTCTGGATCCCTGCA [coligo 30a]”, in data set [1] (setting [3]), the “activity on this sequence” value is recorded as “not active”.
Regarding “TAGCAGGCCACCATCAGTTTTGCATAGATTTGCACAACTACATTCTTCTTGTAGTGCAACTATGCAAAACTAACAGAGGACTGCAA [coligo 19a]”, the “activity on this sequence” value in data set [1] (poor substrate, no detectable single round transcript, folded or branched DNA) is on record as “less active”.
Consider “TCGTCTTCGTCCCAGTAAGCTATGTCTCCAGAATGTAGCCA [coligo Luciferase-sense1]”, for which the “activity on this sequence” value in data set [1] (setting [3]) is listed as “not active”.
For the sequence “TGGACCTTGAGAGCTTGTTTGGAGGTT [coligo 7SK-KOas]”, the “activity on this sequence” value in data set [1] (setting [3]) is “not active”.
Take “TTGCCCTATTTAGTGTGATAATGGCGTTTGATAGTTTAGACACAAACACCATTGTCACACTCCACAGGGAA [coligo 122s]”: the “activity on this sequence” value in data set [1] (65-nt transcript, less than coligo 122, folded or branched DNA, variant of coligo 122) was “active”.
For the sequence “TTGCCTAGCAGTAGCTATTTAGTGTGATAATGGCGTTTGATAGTTTAGACACAAACACCATTGTCACACTCCACAGCTCTGCTAAGGAA [coligo 122]”, the “activity on this sequence” value in data set [2] was “active”.
“TTGCCTAGCAGTAGCTATTTAGTGTGATAATGGCGTTTGATAGTTTAGACACAAACACCATTGTCACACTCCACAGCTCTGCTAAGGAA [linear 122]”: the “activity on this sequence” value in data set [1] (5' phosphate, no transcript from linear form, linear degraded in WCE, single-stranded DNA, variant of coligo 122) is reported as “not active”.
Turning to “TTTCTTTACATTTCTTTCTTTTCCGATCCTTTTCGGAT [coligo Pyr-rich]”, the “activity on this sequence” value in data set [1] (setting [3]) is listed as “not active”.
